Chains of the proteins cited; added tags and fusions are not shown. Residues count along the entry.
UniProt P08887, 20-355: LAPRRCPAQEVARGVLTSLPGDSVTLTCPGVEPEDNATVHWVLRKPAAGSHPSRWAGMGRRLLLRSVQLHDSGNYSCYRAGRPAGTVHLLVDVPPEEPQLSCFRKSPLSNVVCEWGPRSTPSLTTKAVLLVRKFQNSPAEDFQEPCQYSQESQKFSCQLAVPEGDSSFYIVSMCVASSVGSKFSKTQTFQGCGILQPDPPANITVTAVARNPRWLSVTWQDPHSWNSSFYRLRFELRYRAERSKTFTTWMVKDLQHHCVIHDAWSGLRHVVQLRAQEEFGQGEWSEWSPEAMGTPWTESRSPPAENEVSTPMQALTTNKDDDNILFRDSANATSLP
UniProt P05231, 30-212: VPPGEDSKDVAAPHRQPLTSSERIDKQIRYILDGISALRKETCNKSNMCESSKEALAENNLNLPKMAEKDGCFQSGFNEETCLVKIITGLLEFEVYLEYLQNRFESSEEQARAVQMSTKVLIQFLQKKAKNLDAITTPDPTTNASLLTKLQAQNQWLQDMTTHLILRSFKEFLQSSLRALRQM

According to article PMC11323322:

Columns and labels:
[1] = biological target: sIL-6R (soluble IL-6 receptor alpha) (human) (UniProt P08887); assay: pull-down, real-time PCR; conditions: circular; 1x PBSMT pH 7.2: 137 mM NaCl, 2.68 mM KCl, 8.1 mM Na2HPO4, 1.76 mM KH2PO4, 1 mM MgCl2, 0.025% Tween-20; pull-down 1 h (room temperature in SELEX); commercial protein; single-stranded DNA
[2] = biological target: IL-6 (interleukin-6) (human) (UniProt P05231); assay: MST; conditions: lower affinity than CIL-6A6-1; 1x PBSMT pH 7.2: 137 mM NaCl, 2.68 mM KCl, 8.1 mM Na2HPO4, 1.76 mM KH2PO4, 1 mM MgCl2, 0.025% Tween-20; pull-down 1 h (room temperature in SELEX); MST at 25 C; commercial protein; single-stranded DNA
[3] = biological target: sIL-6R (soluble IL-6 receptor alpha) (human) (UniProt P08887); assay: MST; conditions: DNA version of RNA aptamer; 1x PBSMT pH 7.2: 137 mM NaCl, 2.68 mM KCl, 8.1 mM Na2HPO4, 1.76 mM KH2PO4, 1 mM MgCl2, 0.025% Tween-20; pull-down 1 h (room temperature in SELEX); MST at 25 C; commercial protein; folded or branched DNA

## ATCTCGACTATTTTTTTTTTTTTTTTTTTTGGGGAGGCTGTGGTGAGGGTTTTTTTTTTTTTTTTTTTTTGTCTCGGAT [CIL-6A-R]
[1]
  binding result: binds more weakly

## CTTCCAACGCTCGTATTGTCAGTCTTTAGT [IL62]
[2]
  binding result: binds more weakly

## GGGGAGGCTGTGGTGAGGG [AIR-3A DNA counterpart]
[3]
  pKd: 6.88

pKd: −log10 of the molar value. For part of these data: Weaker means in comparison with the reference protein, sequence or condition of that experiment. For part of these data: Construct, isoform or probe ends are uncertain for at least one entry.
